Data as given in PubChem BioAssay AID686938 (Drosophila RNAi Screening Center, 2013)

Assay: 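Fly genes required for calcium entry once internal stores are emptied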 (primary screen)
Cell system: Drosophila S2R+ cells
Knock-down reagent: long dsRNA against Drosophila genes, about 0.25 µg dsRNA per well, roughly 10,000 cells
Timing: 5 days of knock-down before the calcium assay
Treatment: thapsigargin (SERCA pump blocker) to empty calcium stores; entry signal taken 4 min after adding it
Detection: 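Duplicate raw fluo-4 intensities per well from a plate reader, at rest and four minutes after thapsigargin emptied calcium stores; entry-to-rest ratio filled for only some wells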
Direction: calcium entry signal: higher = stronger calcium signal after store depletion; entry to resting ratio: higher = more calcium entry relative to resting level; resting calcium signal: higher = higher resting calcium signal
Units: calcium entry signal in fluorescence units; resting calcium signal in fluorescence units
Hit rule: 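Called when the plate z-score of the entry-to-rest ratio, mean of duplicates, falls below −3; wells with low overall dye signal (Fmax z below −2) or more than five off-targets excluded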
Meaning of the calls: active = strongly reduced calcium entry; inactive = no strong reduction
In all, the deposit lists about 23,000 reagents; this is an unselected part of those with a known target gene and a result. Over the whole deposit, 75 (0.33%) are marked active. 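Raw plate signals without normalisation; calls rest on plate z-scores that were not deposited; ratio present for only 364 wells.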 The numbers tell different reagents against one gene apart. A plus sign joins genes that one reagent is predicted to hit. Not stated in the record: the dose of the treatment.

MTF-1 (Metal response element-binding Transcription Factor-1) #1 showed calcium entry signal, replicate 1 = 3.71e7; calcium entry signal, replicate 2 = 3.74e7; resting calcium signal, replicate 1 = 2.05e7; resting calcium signal, replicate 2 = 1.78e7; inactive.
For MTF-1 (Metal response element-binding Transcription Factor-1) #2 the deposit lists calcium entry signal, replicate 1 = 2.26e7; calcium entry signal, replicate 2 = 4.40e7; resting calcium signal, replicate 1 = 1.18e7; resting calcium signal, replicate 2 = 2.23e7; inactive.
Against MTF-1 (Metal response element-binding Transcription Factor-1) #3, the entry reads calcium entry signal, replicate 1 = 2.41e7; calcium entry signal, replicate 2 = 3.42e7; resting calcium signal, replicate 1 = 1.18e7; resting calcium signal, replicate 2 = 1.53e7; inactive.
Against Tdg (Thymine DNA glycosylase) #1, the entry reads calcium entry signal, replicate 1 = 6.51e7; calcium entry signal, replicate 2 = 3.98e7; resting calcium signal, replicate 1 = 2.83e7; resting calcium signal, replicate 2 = 1.70e7; inactive.
After knock-down of Tdg (Thymine DNA glycosylase) #2, the screen gave calcium entry signal, replicate 1 = 4.13e7; calcium entry signal, replicate 2 = 5.48e7; entry to resting ratio 2; resting calcium signal, replicate 1 = 2.11e7; resting calcium signal, replicate 2 = 2.11e7; inactive.
Against fabp + sea #1 the deposit lists calcium entry signal, replicate 1 = 2.27e7; calcium entry signal, replicate 2 = 2.97e7; resting calcium signal, replicate 1 = 1.09e7; resting calcium signal, replicate 2 = 1.43e7; inactive.
After knock-down of fabp + sea #2, the screen gave calcium entry signal, replicate 1 = 2.30e7; calcium entry signal, replicate 2 = 2.90e7; resting calcium signal, replicate 1 = 9.79e6; resting calcium signal, replicate 2 = 1.36e7; inactive.
For didum (dilute class unconventional myosin), the entry reads calcium entry signal, replicate 1 = 3.67e7; calcium entry signal, replicate 2 = 3.79e7; resting calcium signal, replicate 1 = 1.75e7; resting calcium signal, replicate 2 = 1.61e7; inactive.
Silencing of kcc (kazachoc) #1 came out at: calcium entry signal, replicate 1 = 3.32e7; resting calcium signal, replicate 1 = 1.62e7; inactive.
kcc (kazachoc) #2 scored calcium entry signal, replicate 1 = 4.16e7; calcium entry signal, replicate 2 = 4.45e7; resting calcium signal, replicate 1 = 2.05e7; resting calcium signal, replicate 2 = 2.08e7; inactive.
For ATPsynbetaL (ATP synthase, beta subunit-like), the values are calcium entry signal, replicate 1 = 3.71e7; calcium entry signal, replicate 2 = 5.94e7; resting calcium signal, replicate 1 = 1.88e7; resting calcium signal, replicate 2 = 2.10e7; inactive.
For CG13616, the entry reads calcium entry signal, replicate 1 = 3.38e7; calcium entry signal, replicate 2 = 4.96e7; resting calcium signal, replicate 1 = 1.89e7; resting calcium signal, replicate 2 = 1.92e7; inactive.

Taken from above:
kcc (kazachoc) #2, calcium entry signal, replicate 1: 4.16e7
Under “calcium entry signal, replicate 1”, fabp + sea #2 shows 2.30e7
